Reference: patent publication US12091696B2, “O-methyltransferase protein with highly specific catalytic function for multiple bias parent nuclei and encoding gene and use thereof” (INSTITUTE OF CHINESE MATERIA MEDICA CHINA ACADEMY OF …, priority 2023, dated 2024)
Some results were stated once for a whole list of compounds, not compound by compound. For at least one compound, name, drawing or mass did not settle the structure.

Test system: wild-type O-methyltransferase
Assay: In vitro enzymatic activity of wild-type O-methyltransferase (comparison with mutant)
Type: biochemical, Nelumbo nucifera
Conditions: same method as Example 1
Description: An in vitro enzymatic activity reaction was conducted at a pH value of 8.0 and 37° C. for 12 h in a 100 μL system containing 50 mM of a potassium phosphate buffer, 100 μM of a substrate, 200 μM of a SAM donor, and 50 μg of the purified protein. 100 μL of methanol was added to terminate the above reaction, the protein was centrifuged at 12,000×g for 30 min in a centrifuge, and a resulting supernatant was passed through a 0.22 μm microporous membrane and injected into UPLC-QTOF-MS/MS for detection. A sample prepared in a same way with boiled purified protein was served as a negative control.
A specific experimental method was the same as that in Example 1.

COc1cc2c(cc1O)[C@@H](Cc1ccc(O)cc1)N(C)CC2 [Compound 3, N-methylcoclaurine]
catalytic conversion rate by wild-type O-methyltransferase: less than 2%

N-methlyasimilobine [Compound 8]
catalytic conversion rate by wild-type O-methyltransferase: less than 2%
